Data published in PubChem BioAssay AID1259415 (National Center for Advancing Translational Sciences (NCATS), 2018).
Screen size: about 410,000 compounds; about 18,000 (4.4%) were called active. This list was built around the results that the source calls inconclusive (neither active nor inactive); the mix of calls is not that of the screen. No stated cut-off is given here; in the data, active means activity change below about -60%; inconclusive means no clear call, values can overlap the other calls; inactive means above about -39%.

Assay: qHTS Assay for inhibitors of the human cytomegalovirus (HCMV)
Details: HFF cells, HCMV-luciferase reporter, 72 h; at 57.5 µM; active compounds read low
In short: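 Two compound doses tested in HFFs infected with HCMV-luciferase, MOI 1 PFU/cell, 72 h at 37C. Lysate luminescence read with OneGlo; data normalized against buffer-only and 10uM Salinomycin inhibitor controls.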
On the % scale 0 is the no-effect control and ±100 the full control effect.

SMILES	activity change, negative = inhibition
CN(C)c1ccc(CNCCC(Cc2ccccc2)c2ccco2)cc1 (stereo unspecified)	inconclusive: -42.2%
CC(C)CCNC(=O)c1cccc(Cl)c1	inactive: 36%
CCOc1ccc(N(CC)C(=O)Cn2cnc3sc(C)c(S(=O)(=O)N4CCN(c5ncccn5)CC4)c3c2=O)cc1	inactive: 19.3%
CSC(=NC(C)c1ccccc1)NS(=O)(=O)c1cccs1 (stereo unspecified)	inconclusive: -59.6%
Cc1cc(NS(=O)(=O)c2ccc(NC(=O)COc3cc(C)c(Br)cc3C(C)C)cc2)no1	inactive: -5.41%
CCOC(=O)c1ccc(Nc2cc(C)nc(-c3ccccc3O)n2)cc1	inconclusive: -50.8%
Cn1ncc(Cl)c1C(=O)N1CCN(S(=O)(=O)c2cccs2)CC1	inactive: 39%
CC1C(=O)N2CCCc3cc(NC(=O)C(=O)NCc4ccc5c(c4)OCO5)cc1c32 (stereo unspecified)	inactive: 16.8%
O=C(c1ccc2ccccc2c1)N1CCN(Cc2ccccc2)CC1	inconclusive: -40.6%
CCn1c(SCC(=O)N2CCC(C)CC2)nnc1-c1ccco1	inconclusive: -42.8%
N#CCCN(Cc1ccccc1)C(C(=O)NC1CCCCC1)C1CC1 (stereo unspecified)	inactive: -6.2%
Cc1ccc(/C(N)=N/OC(=O)c2ccc(C)cc2Cl)cc1	active: -79.3%
COc1cc(SC)ccc1C(=O)Nc1ccc2ncccc2c1	inactive: 136%
COc1cc(NC(=O)COC(=O)/C=C/c2ccccc2Cl)cc(OC)c1	active: -103%
COc1ccc(C(=Cc2cc(OC)c(OC)cc2[N+](=O)[O-])C(=O)O)cc1	active: -99%
Cc1cc(NC(=O)COC(=O)c2ccc(NS(=O)(=O)c3ccc(C)c(C)c3)cc2)no1	inconclusive: -45.7%
Cc1ccc(NS(=O)(=O)c2csc(C(N)=O)c2)cc1C	inconclusive: -54.4%
CCOc1ccccc1-c1cc(C(=O)N/N=C/c2cccnc2)c2ccccc2n1	inactive: -5.83%
O=C(Nc1ccc(OC(F)(F)F)cc1)N1CCN(c2ccnc3cc(Cl)ccc23)CC1	active: -84.7%

Reprinted at random: 4 entries already listed
SMILES	activity change, negative = inhibition
CC1C(=O)N2CCCc3cc(NC(=O)C(=O)NCc4ccc5c(c4)OCO5)cc1c32 (stereo unspecified)	inactive: 16.8%
CCOc1ccccc1-c1cc(C(=O)N/N=C/c2cccnc2)c2ccccc2n1	inactive: -5.83%
O=C(Nc1ccc(OC(F)(F)F)cc1)N1CCN(c2ccnc3cc(Cl)ccc23)CC1	active: -84.7%
COc1ccc(C(=Cc2cc(OC)c(OC)cc2[N+](=O)[O-])C(=O)O)cc1	active: -99%

Remaining list, next part

SMILES	activity change, negative = inhibition
Cc1ccccc1CN1C(=O)C(C)N=C(c2ccccc2)c2ccccc21 (stereo unspecified)	inconclusive: -44.1%
NC(=O)c1ccc(-n2nnnc2SCC(=O)Nc2ccccc2-c2ccccc2)cc1	inconclusive: -58.3%
CN(CC(=O)Nc1ccccc1Cl)C(=O)c1cccc(S(=O)(=O)N2CCN(Cc3ccccc3)CC2)c1	active: -79.8%
COc1cc(Nc2nc3c(S(=O)(=O)c4ccccc4)nnn3c3ccc(Cl)cc23)cc(OC)c1	inactive: -10.5%
CN(C)c1ccc(-c2noc(C3CCN(S(=O)(=O)c4cccc(Cl)c4)CC3)n2)cc1	inconclusive: -44.9%
Cc1cccc(N/C(N)=N/c2nc(CSc3ccc(Cl)cc3)cc(=O)[nH]2)c1	inconclusive: 0%
CCOc1ccc(S(=O)(=O)N2CCCC(C(=O)NCc3ccncc3)C2)cc1 (stereo unspecified)	inconclusive: -43.8%
COc1ccc(Cn2nnnc2C(c2cc(OC)ccc2OC)N2CCC(C(N)=O)CC2)cc1 (stereo unspecified)	inconclusive: -40.8%
COc1ccc(N(C(C)C(=O)N2CCC(Cc3ccccc3)CC2)S(C)(=O)=O)cc1 (stereo unspecified)	active: -74.2%
O=C(Nc1ccc(Br)c(C(F)(F)F)c1)c1ccc(C(F)(F)F)cc1	active: -96.7%
CCCCc1cc(=O)oc2cc(C)cc(OCC(=O)NCc3cccnc3)c12	inconclusive: -53.9%
CCCC(=NC(C)CC)C1=C(O)CC(c2ccccc2)CC1=O (stereo unspecified)	inactive: 7.03%
CN1CCN(c2nc3cc(C(F)(F)F)ccc3n3cccc23)CC1	inconclusive: -48%
COc1ccc(-n2c(=O)c3c(C)c(C)sc3n(Cc3cccc(F)c3)c2=O)c(OC)c1	inconclusive: -43.7%
Cc1ccc(Oc2ccc(Cl)cc2N)cc1	inactive: -36.1%
CCn1c(CNC(=O)c2cc(OC)c(OC)c(OC)c2)cc2ccccc21	active: -61%
O=C(Nc1c(Cl)c(C2CC2)nn1-c1ccccc1)C(Cl)(Cl)Cl	inactive: 12.3%
CN1CN(c2ccccc2)C2(CCN(CCCSc3ccccc3NC(=O)/C=C/c3ccccc3)CC2)C1=O	active: -66.2%
CCOC(=O)Cc1nnc(NCc2ccccc2)c2ccccc12	inconclusive: -58.6%

SMILES	activity change, negative = inhibition
CCc1cc(-c2cnnn2Cc2ccc3ccccc3c2)ccc1-c1cn(CC(C)C)nn1	inactive: -21.1%
Fc1cccc(/C=N/N=C/c2cccc(F)c2)c1	inconclusive: -50.6%
CCCS(=O)(=O)NC(=O)C1(C)CCCN(C(=O)c2c(-c3ccccc3)noc2C)C1 (stereo unspecified)	active: -63%
CC(C)c1ccccc1NC(=S)NN(Cc1ccccc1)c1ccccc1	inactive: -10.5%
COc1ccc(-c2ccc(C(=O)NCc3ccncc3)c3occc23)c(C)c1	active: -91.1%
Cc1ccc(N(CC(=O)NCC2CCCO2)S(=O)(=O)c2ccccc2)c(C)c1 (stereo unspecified)	inconclusive: -45.4%
Cc1ccc(-n2c(SCC(=O)Nc3ccc(N4CCOCC4)cc3)nc3ccccc3c2=O)cc1	inconclusive: -40.4%
O=C(Cn1c(=O)c2cccn2c2ccccc21)NCc1cccc(F)c1	inconclusive: -44.9%
CCCCN(CC)C(=O)CSc1nc2c(sc3ccccc32)c(=O)n1CCc1ccccc1	inactive: 20.4%
COc1cc(C)c(Br)cc1S(=O)(=O)NCc1cccs1	inconclusive: -53.7%
COC(=O)c1[nH]c(C)c(/C(O)=C2\C(=O)C(=O)N(CCN(C)C)C2c2ccco2)c1C (stereo unspecified)	inactive: 15.4%
CC(C)Cc1ccc(S(=O)(=O)N2CCN(C(=O)c3ccco3)CC2)cc1	inconclusive: -46.4%
O=C(CN1CCN(C(=S)NC2CCCC2)CC1)Nc1ccc(Oc2ccccc2)cc1	active: -79.5%
CCN(CC)CCOC(=O)c1ccccc1Br	inconclusive: -43.3%
O=[N+]([O-])NC1=NCN(Cc2ccco2)CN1Cc1ccco1	inconclusive: -40.5%
CN(C)c1nnnn1-c1ccc(Oc2ncc(C(F)(F)F)cc2Cl)cc1	inconclusive: -44.5%
S=C(NN=Cc1ccccn1)N(Cc1ccccn1)Cc1ccccn1	active: -76.8%
COc1cccc(C(=O)N2CCn3c2nc2ccccc23)c1	inconclusive: -45.6%
